Test results published in the supplement of paper PMC12823440, “Inhibitors supercharge kinase turnover through native proteolytic circuits” (Nature, 2025).
The other results are listed elsewhere or left out. Hit calls seldom repeat between salt and free forms of one compound.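 In K562 cells expressing nanoluciferase-fused kinases, luminescence was recorded at 4 h intervals between 2 and 18 h, normalized as percent of control with DMSO at 100% and a positive control at 0%. A significant (2 sigma) signal drop marks a time point as decreased. The authors' rule for a hit is not shown and takes in more than the number of time points.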

Amino acid sequences for entries named in this document (tags omitted). A change or cut given only in a name is not applied to a line headed by its entry.
UniProt O15530: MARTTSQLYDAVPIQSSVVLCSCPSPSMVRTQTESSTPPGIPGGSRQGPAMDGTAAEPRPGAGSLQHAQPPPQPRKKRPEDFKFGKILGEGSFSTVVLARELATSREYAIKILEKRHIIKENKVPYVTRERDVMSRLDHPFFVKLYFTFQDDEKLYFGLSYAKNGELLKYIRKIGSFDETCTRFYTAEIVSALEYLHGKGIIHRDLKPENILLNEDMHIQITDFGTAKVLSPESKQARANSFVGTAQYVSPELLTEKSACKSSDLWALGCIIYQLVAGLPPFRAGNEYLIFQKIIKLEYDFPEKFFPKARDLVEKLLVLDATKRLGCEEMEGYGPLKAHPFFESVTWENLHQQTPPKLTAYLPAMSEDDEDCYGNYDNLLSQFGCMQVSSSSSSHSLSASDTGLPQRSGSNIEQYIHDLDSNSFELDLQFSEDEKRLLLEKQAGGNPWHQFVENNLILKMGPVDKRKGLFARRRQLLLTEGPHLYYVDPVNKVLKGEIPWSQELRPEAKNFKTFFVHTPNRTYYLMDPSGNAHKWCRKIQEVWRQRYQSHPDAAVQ
UniProt P42356, whole entry, looked up: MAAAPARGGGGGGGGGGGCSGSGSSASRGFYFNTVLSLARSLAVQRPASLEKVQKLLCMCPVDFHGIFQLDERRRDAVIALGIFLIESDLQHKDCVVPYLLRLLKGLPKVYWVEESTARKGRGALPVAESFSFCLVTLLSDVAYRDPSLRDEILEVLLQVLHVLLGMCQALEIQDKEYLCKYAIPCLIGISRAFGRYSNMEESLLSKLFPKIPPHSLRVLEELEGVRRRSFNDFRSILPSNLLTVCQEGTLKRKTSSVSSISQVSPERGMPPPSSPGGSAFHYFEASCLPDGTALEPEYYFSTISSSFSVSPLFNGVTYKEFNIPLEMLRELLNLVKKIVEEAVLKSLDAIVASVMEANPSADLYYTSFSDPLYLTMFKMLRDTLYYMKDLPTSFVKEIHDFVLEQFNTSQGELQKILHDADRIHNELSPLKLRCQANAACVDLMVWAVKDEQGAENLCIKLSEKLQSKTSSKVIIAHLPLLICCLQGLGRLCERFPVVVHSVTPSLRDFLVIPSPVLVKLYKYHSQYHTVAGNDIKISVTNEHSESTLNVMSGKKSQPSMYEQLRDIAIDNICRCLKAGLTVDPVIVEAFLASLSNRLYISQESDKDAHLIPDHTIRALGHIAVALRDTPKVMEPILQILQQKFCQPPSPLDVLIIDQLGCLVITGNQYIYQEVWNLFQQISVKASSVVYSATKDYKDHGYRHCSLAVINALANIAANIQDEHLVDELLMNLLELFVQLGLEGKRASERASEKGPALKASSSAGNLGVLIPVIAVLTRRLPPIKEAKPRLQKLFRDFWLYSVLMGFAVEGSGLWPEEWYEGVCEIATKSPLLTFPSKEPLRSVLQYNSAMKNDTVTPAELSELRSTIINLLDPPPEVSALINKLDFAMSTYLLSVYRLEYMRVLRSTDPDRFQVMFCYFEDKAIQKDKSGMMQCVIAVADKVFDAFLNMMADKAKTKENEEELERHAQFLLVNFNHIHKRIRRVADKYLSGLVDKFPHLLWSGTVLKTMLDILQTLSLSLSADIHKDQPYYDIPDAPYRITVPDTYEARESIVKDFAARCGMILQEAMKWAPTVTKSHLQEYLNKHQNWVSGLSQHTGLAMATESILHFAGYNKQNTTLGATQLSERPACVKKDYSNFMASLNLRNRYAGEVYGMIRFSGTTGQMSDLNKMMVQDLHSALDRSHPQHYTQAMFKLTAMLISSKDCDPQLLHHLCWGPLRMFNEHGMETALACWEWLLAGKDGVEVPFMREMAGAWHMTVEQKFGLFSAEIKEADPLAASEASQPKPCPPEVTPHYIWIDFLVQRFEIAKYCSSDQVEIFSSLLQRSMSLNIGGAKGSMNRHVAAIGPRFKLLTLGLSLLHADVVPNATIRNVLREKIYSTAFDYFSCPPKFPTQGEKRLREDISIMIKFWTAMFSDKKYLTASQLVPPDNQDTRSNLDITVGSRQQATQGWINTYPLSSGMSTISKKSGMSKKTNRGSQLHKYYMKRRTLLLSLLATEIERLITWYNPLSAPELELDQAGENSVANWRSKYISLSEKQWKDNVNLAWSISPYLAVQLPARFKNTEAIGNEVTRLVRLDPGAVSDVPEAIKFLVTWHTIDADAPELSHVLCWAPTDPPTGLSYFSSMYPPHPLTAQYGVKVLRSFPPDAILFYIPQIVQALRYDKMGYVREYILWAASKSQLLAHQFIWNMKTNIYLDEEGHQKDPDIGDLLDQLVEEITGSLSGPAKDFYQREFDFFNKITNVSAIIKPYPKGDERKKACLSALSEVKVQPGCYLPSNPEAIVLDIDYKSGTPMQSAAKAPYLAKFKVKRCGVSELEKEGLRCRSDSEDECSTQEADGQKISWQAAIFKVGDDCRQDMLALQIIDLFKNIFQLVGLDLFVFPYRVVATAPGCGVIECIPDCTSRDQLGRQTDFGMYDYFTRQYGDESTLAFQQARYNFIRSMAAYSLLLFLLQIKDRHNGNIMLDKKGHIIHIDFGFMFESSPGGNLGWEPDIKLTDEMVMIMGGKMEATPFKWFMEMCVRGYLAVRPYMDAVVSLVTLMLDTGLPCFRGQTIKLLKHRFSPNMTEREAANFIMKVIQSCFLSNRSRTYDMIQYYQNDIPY
UniProt Q9UBF8: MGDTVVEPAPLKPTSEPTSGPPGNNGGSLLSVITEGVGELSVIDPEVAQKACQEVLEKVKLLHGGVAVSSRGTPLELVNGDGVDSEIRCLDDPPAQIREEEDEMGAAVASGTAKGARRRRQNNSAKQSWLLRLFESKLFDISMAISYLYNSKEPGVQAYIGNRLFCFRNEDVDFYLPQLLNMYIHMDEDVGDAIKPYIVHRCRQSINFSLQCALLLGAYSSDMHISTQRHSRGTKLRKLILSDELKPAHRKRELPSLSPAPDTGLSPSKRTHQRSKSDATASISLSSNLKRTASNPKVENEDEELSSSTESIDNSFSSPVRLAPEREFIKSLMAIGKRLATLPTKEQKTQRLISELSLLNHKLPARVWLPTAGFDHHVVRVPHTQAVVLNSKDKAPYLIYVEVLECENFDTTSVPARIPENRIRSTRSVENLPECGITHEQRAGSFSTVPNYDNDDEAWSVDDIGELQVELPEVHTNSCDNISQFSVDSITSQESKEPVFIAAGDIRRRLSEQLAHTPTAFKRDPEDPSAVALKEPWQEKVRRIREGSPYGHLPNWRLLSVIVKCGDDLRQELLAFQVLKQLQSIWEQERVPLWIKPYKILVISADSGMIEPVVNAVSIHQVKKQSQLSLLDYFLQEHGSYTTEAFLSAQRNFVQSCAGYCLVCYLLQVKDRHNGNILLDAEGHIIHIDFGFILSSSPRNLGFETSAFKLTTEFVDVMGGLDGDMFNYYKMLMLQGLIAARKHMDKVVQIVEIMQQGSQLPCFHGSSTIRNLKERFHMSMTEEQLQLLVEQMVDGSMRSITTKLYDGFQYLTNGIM
UniProt P53350, whole entry: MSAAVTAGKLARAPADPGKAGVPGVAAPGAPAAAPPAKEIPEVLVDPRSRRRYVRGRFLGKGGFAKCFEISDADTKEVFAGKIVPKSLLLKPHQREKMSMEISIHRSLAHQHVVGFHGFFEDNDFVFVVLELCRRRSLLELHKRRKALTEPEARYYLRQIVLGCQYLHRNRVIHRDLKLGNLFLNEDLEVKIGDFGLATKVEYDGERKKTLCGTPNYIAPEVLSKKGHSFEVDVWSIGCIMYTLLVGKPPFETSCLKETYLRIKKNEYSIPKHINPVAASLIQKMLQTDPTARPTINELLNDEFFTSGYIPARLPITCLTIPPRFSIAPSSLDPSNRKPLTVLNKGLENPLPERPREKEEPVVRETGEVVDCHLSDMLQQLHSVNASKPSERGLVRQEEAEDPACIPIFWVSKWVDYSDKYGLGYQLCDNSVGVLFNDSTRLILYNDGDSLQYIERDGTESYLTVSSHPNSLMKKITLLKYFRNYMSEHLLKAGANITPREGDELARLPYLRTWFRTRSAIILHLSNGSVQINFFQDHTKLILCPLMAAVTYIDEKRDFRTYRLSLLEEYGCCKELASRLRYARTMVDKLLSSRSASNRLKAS
UniProt Q13131: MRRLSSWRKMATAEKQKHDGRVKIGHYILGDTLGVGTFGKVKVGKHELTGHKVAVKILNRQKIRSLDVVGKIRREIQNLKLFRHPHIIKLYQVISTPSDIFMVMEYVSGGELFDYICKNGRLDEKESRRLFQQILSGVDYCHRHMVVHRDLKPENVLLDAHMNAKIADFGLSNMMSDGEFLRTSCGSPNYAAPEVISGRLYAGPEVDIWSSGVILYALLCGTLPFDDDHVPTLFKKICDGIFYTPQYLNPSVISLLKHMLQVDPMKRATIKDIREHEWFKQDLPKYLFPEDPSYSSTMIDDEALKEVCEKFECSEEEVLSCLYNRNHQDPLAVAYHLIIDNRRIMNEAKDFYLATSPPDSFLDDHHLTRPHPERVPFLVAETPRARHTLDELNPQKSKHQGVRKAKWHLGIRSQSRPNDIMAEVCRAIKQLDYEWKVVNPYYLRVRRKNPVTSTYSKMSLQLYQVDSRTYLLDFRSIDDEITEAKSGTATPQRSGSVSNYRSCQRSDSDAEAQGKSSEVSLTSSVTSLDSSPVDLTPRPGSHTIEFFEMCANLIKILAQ
UniProt Q14289, whole entry, looked up: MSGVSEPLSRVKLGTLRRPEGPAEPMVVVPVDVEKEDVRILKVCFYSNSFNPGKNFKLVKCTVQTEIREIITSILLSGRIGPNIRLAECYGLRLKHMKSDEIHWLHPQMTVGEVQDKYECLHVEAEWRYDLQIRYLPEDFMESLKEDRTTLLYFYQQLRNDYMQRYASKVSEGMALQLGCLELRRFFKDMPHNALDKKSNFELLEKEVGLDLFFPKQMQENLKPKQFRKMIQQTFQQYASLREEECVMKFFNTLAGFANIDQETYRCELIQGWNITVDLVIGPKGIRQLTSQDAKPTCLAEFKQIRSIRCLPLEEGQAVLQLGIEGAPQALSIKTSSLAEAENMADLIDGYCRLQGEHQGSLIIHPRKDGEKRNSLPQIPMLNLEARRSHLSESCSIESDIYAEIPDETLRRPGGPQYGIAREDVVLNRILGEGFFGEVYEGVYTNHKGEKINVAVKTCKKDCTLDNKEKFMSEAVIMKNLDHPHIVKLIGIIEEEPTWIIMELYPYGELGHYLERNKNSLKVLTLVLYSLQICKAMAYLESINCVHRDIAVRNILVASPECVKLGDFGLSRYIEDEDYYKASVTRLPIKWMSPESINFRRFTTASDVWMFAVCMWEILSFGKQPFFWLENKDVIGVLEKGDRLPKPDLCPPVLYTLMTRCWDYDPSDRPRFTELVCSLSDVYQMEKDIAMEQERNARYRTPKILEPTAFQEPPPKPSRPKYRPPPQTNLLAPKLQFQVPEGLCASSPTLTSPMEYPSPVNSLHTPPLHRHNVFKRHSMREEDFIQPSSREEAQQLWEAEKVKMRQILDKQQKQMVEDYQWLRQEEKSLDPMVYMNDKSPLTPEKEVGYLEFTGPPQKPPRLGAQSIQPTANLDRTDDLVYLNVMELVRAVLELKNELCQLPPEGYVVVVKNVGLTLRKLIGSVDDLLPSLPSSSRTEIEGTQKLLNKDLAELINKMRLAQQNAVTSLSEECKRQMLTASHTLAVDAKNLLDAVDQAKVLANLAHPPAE

Columns and labels:
Experiment in all cases: kinase-Nluc reporter destabilization hit call (1 = scored as downregulated) (binary); higher = compound decreases kinase abundance
Conditions in all cases: K562; 2-18 h
[1] = molecular target: PDPK1 (UniProt O15530)
[2] = molecular target: PIK4CA (UniProt P42356)
[3] = molecular target: PIK4CB (UniProt Q9UBF8)
[4] = molecular target: PLK1 (UniProt P53350)
[5] = molecular target: PRKAA1 (UniProt Q13131)
[6] = molecular target: PRKCA (UniProt P17252)
[7] = molecular target: PTK2 (UniProt Q05397)
[8] = molecular target: PTK2B (UniProt Q14289)
[9] = molecular target: RAF1 (UniProt P04049)
[10] = molecular target: RAF1_S257L (clone: RAF1_mut) (UniProt P04049)

Measured: kinase-Nluc reporter destabilization hit call

COC1(c2sc3c(N4CCOCC4)nc(-c4cnc(N)nc4)nc3c2C)COC1 (2.5 µM)
inactive: [1] 0 | [2] 0 | [3] 0 | [4] 0 | [5] 0 | [6] 0 | [7] 0 | [8] 0 | [9] 0 | [10] 0

Cc1ccc(-c2c(C(=O)CF)n(CCCO)c3ncnc(N)c23)cc1 (10 µM)
inactive: [1] 0 | [2] 0 | [3] 0 | [4] 0 | [5] 0 | [6] 0 | [7] 0 | [8] 0 | [9] 0 | [10] 0

COc1ccc(C(=O)Nc2sc3c(c2C(N)=O)CCCC3)cc1OC (10 µM)
inactive: [1] 0 | [2] 0 | [3] 0 | [4] 0 | [5] 0 | [6] 0 | [7] 0 | [8] 0 | [9] 0 | [10] 0

O=C(O)c1cc(O)ccc1O [2,5-Dihydroxybenzoic acid] (10 µM)
inactive: [1] 0 | [2] 0 | [3] 0 | [4] 0 | [5] 0 | [6] 0 | [7] 0 | [8] 0 | [9] 0 | [10] 0

O=C(O)CCc1ccc(O)c(O)c1 [Dihydrocaffeic acid] (10 µM)
inactive: [1] 0 | [2] 0 | [3] 0 | [4] 0 | [5] 0 | [6] 0 | [7] 0 | [8] 0 | [9] 0 | [10] 0

CC(C)=CCC[C@](C)(O[C@@H]1O[C@H](CO)[C@@H](O)[C@H](O)[C@H]1O)[C@H]1CC[C@]2(C)[C@@H]1[C@H](O)C[C@@H]1[C@@]3(C)CC[C@H](O)C(C)(C)[C@@H]3[C@@H](O[C@@H]3O[C@H](CO)[C@@H](O)[C@H](O)[C@H]3O[C@@H]3O[C@@H](C)[C@H](O)[C@@H](O)[C@H]3O)C[C@]12C [Ginsenoside Re] (10 µM)
inactive: [1] 0 | [2] 0 | [3] 0 | [4] 0 | [5] 0 | [6] 0 | [7] 0 | [8] 0 | [9] 0 | [10] 0

CCn1c(=O)c(-c2ccc(-c3cncc(C)n3)cc2Cl)cc2cnc(NCCC3CCN(C)CC3)nc21 (10 µM)
inactive: [1] 0 | [2] 0 | [3] 0 | [4] 0 | [5] 0 | [6] 0 | [7] 0 | [8] 0 | [9] 0 | [10] 0
